Experimental data taken from patent publication US20220249563A1 (LEGEND BIOTECH IRELAND, published 2022).
These are yes or no findings as the source states them, for the method shown. Some results given as binding are weak or reduced against the parent protein; the word gives no strength.

By UniProt entry, the sequences of proteins in these tests, tags left out. Where a name states a change or a piece, a line headed by the entry shows the natural chain unless it says otherwise. Chains listed by the source or under a name are the forms on record and can include a tag or linker. Residues count along the entry.
rhesus DLL3 (F6TFV4, form named): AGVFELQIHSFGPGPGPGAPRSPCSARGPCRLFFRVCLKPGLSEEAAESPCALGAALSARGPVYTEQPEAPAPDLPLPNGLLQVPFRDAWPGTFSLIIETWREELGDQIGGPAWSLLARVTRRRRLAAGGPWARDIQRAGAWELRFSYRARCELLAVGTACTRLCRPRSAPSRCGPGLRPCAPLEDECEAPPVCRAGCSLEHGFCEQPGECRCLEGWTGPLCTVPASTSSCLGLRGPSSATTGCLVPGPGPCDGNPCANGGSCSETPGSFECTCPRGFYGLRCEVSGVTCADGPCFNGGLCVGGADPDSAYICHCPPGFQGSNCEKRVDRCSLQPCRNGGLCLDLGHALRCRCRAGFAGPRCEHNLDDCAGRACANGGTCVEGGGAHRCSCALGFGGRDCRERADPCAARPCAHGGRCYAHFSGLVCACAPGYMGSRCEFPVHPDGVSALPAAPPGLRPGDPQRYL
UniProt Q9NYJ7, residues 27-466: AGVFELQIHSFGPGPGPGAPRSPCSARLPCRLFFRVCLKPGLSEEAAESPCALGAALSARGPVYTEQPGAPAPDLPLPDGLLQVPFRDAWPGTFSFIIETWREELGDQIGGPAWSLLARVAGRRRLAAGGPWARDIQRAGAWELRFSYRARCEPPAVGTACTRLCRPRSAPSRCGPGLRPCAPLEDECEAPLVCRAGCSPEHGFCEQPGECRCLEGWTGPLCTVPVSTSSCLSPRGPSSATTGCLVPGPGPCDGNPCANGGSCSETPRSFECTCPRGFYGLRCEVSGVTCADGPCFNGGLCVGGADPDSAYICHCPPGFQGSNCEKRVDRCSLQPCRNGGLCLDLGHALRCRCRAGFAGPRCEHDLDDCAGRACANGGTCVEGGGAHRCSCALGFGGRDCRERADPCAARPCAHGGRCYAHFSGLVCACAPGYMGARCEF

B1: AS64606 (VHH)
VHH: EVQLAESGGGSVQAGGSLRLSCAVSGYTSRSNYMGWFRQAPGKEREGVALIYTRGGSTYYASSVKGRFTISQDSAKKTYLQMNSVKPEDTAMYYCALRLDEKMYWGQGTQVTVSS
B2: AS64443 (VHH)
VHH: QVHLVESGGGSVQAGGSLRLSCAASGYTDSSVYIGWFRQAPGKEREEVAIIYTGGESTHYRSSVKGRFTVSQDNAKNTLYLQMNSLKPEDTAMYYCAARFPAVTYWGQGTQVTVSS
notes: camel sdAb; crude E. coli supernatant
B3: AS64511 HCAb (Fc fusion, not shown: a dimerising Fc or GST)
chain: QVQLVESGGGSVQAGGSLRLSCAASRATYSTNYISWFRQAPGKEREAVATITTGDGETAYADSVKGRFTISRDNAKNTVYLQMNSLKPEDTAMYYCAANLRIGGDWFDGRDFRAWGQGTQVTVSS
notes: camel sdAb fused with human IgG1 hinge and Fc (chimeric HCAb), crude HEK293 medium
B4: AS64597 (VHH)
VHH: QVHLVESGGGSVQAGGSLRLSCAASGYTYRVNFMGWFRQTPGKEREGVATIDSGVGTTYYADSVKGRFTISHNNAKNTIYLQMNSLKPEDTAMYYCAAGGPPTDGDRWYPLRPPGYNYWGQGTQVTVSS
notes: as for B2
B5: AS64617 HCAb (Fc fusion, not shown: a dimerising Fc or GST)
chain: QVQLVESGGGSVQAGGSLRLSCAASGYTDRCSMAWYRQAPGKERELVSRISTSGFTNYAASVKGRFTISQDNAKNTVYLQMNSLNPGDTGMYYCAIIVGRTCSLNYWGNGILVTVSS
B6: AS64634 (VHH)
VHH: QVRLVESGGGSVQAGGSLRLSCAASGYSFRGDFMCMGWFRQTPGKGREGVAVFYPGGGSTNYADSAKGRFTISQDNAKNTMYLQMNTLKPEDTAMYYCAARRWVSGTCYWDSDFHYWGQGTQVTVSS
notes: as for B2
B7: AS69498 (VHH)
VHH: QVQLQESGGGSVQAGGSLRLSCEASGNTYSSNYMAWFRQAPGKEREEVAVIYTRGGHTYYIDSVRGRFTISQDNAKNTVYLQMNSLKPEDTAMYYCAASSRHRLRLSDPRDYDYWGQGTQVTVSS
B8: AS69500 (VHH)
VHH: QVRLVESGGGSVQAGGSLRLSCAADRYTYSSACMGWFRQAPGKEREGVASIFTGTGGSTYYADSVKGRFTISQDNAKNTVYLQMNSLKPEDTAIYYCAARAFQVGYCYLRTDVYNYWGQGTQVTVSS
notes: as for B2
B9: AS69527 (VHH)
VHH: EVQLAESGGGSVQAGGSLRLSCVASRYTFSSTCMAWFRQAPGKEREEVAAIYTDDGSTWYADSVKGRFTISRDNAKNTVYLQMNSLKPEDTAMYYCAARRWACPRVGSWHEFAYWGQGTQVTVSS
notes: as for B2
B10: AS68280 (VHH)
VHH: QVQLVESGGGSVHPGGSLRLSCAASGSTYSSNYLGWFRQAPGKGRDWVAAISTGDGATAYADSVKGRFTISQDNAKNTVYLQMNSLKLEDSAMYYCAAARGRFIDWTKATQYDYWGQGTQVTVSS
notes: as for B2
B11: AS68355 (VHH)
VHH: QMQLVESGGDSVQAGGSLRLSCAASGYTYSGVCMGWFRQAPGKEREGVAAIDSDGSTSYADSVKGRFTISKDNAKNTLYLQMNSLKPEDTAMYYCAAAIVGGFNAYCSGGYVLDFGAWGQGTQVTVSS
notes: as for B2
B12: AS69443 HCAb (Fc fusion, not shown: a dimerising Fc or GST)
chain: EVQLAESGGGSVQAGGSLRLSCSASGFTFDDSDMAWYRQAPGDGCDLVSTISSDGSTYYADSVKGRFTISQDNAKNTVYLQMHSLKPEDTAVYYCAADFLTGFYYSDSPHPAPCSASDFGYWGQGTQVTVSS
B13: AS75376 (VHH)
VHH: QVQLKESGGGSVQAGGSLRLSCAASGYTYSSHSMGWFRQAPGKEREGVAVIYTGDGSTYYADSVKGRFTISQDNAKNTVYLQMNSLKPEDTAMYYCAADPNPDYMLPFRPSRRSWWGQGTQVTVSS
notes: as for B2
B14: AS75387 (VHH)
VHH: QVHLVESGGGSVQAGGSLRLSCAASGYPYSSPCMAWFRQAPGKEREGVLVAYTGGDIQYLTDSVKGRFTISRDNAKNTVYLQMNSLKPEDTAMYYCAADLRLPRAGGCAYSYWGQGTQVTVSS
notes: as for B2
B15: AS75695 (VHH)
VHH: QVRLVESGGGSVQAGGSLRLSCVASGYTVSAYCMGWFRQVLGKGRERIAFIDAGGATIYADPVKGRFTISKDNAKNTLYLQMNSLKPEDTAMYYCVADRRGRVRRCEYNAWGQGTQVTVSS
notes: as for B2
B16: AS76169 (VHH)
VHH: QVHLMESGGGSVQAGGSLRLSCAASGYIYSSFCMGWFRQAPGKEREVVAYIRDNIMTSYTDSVKGRFTISKDNAKRTLYLQMNGLKPEDTGMYYCAVDRGGYANSCAVAARYDYWGRGTQVTVSS
notes: as for B2
B17: AS63931 HCAb (Fc fusion, not shown: a dimerising Fc or GST)
chain: EVQLAESGGGSVQAGGSLRLSCAGSFSGYGVSTMAWFRQAPGKEREGVAAITVGSGNTYYADSVTGRFTISRDNAKRTVYLQMNSLKPEDTAMYYCAAGWLSGGSWHVPGRYNYWGQGTQVTVSS
B18: AS63937 (VHH)
VHH: QVKLVESGGGSVQAGGSLRLSCAASGSTISSRPMAWFRQAPGKEREGVACIHTGLGRTYYADSVKGRFTISQDNAKNTVYLQVNSLKPEDTAMYYCAADSRRPCMVAAGYTYWGQGTQVTVSS
notes: as for B2
B19: AS63956 (VHH)
VHH: QVHLVESGGGLVQAGGSLRLSCAASGFTYSNCCMRWYRQAPGKARELVSLINSSGGTYYADSVRGRFTISKDNAKNTLYLQMNSLKPEDTAMYYCAAYQAKYCSGPCAPPTDWGQGTQVTVSS
notes: as for B2
B20: AS63965 (VHH)
VHH: QVQLVESGGGSVQAGGSLRLSCVASGYSSGSCRMGWYRQAPGKERELVSKVISDGTTVYADSVKGRFTLSQGNAKNTVYLQMSSLLPEDTAMYYCNAWCREYPGGILNNGWGQGTQVTVSS
notes: as for B2
B21: AS63993 (VHH)
VHH: QVKLVESGGGLVQAGGSLRLSCTVSGFTFDDLVMAWFRQAPGKERQLVSLVATAGNSVYADSVKGRFTLSRDNAHSTAYLQMNGLKPEDTAMYYCAARTDSEHAFKFWGQGTQVTVSS
notes: as for B2
B22: AS64006 (VHH)
VHH: QVHLVESGGGSVQAGGSLRLSCEVSGYTGDTTYIGWFRQAPGKEREGVALIYTSGTSEYYADSVKGRFIISRDNAKNTVYLQMNSLKPEDTAMYYCGARSRTMMYWGQGTQVTVSS
notes: as for B2
B23: AS64060 (VHH)
VHH: QVKLVESGGGSVQAGGSLRLSCAASGSTYCTYRMSWFRQAPGKEREFVAVIDSGGSTSYADSVKGRFTISRDNAKNTVYLQMNSLKPEDTAMYYCKTDPTIGCPQTYRYNYWGQGTQVTVSS
notes: as for B2
B24: AS64071 (VHH)
VHH: QVHLMESGGGSVQAGGSLRLSCVASGNTYRLNSMGWFRQAPGKEREGVAFIVMIRGTTYYGASVKGRFTISQDNAQTTVYLQMSSLKPEDTAMYYCAASTKDQFYVFNPIGYDSWGQGTQVTVSS
notes: as for B2

Columns and labels:
[1] = biological target: rhesus DLL3 (rhesus) (UniProt F6TFV4); test: ELISA (protein), FACS (cells)
[2] = biological target: extracellular domain of human DLL3 protein (aa27-466) having an N-terminal FLAG tag (AdipoGen, AG-40B-0151) (human) (UniProt Q9NYJ7); test: ELISA (protein), FACS (cells)

Binder | binding [1] | binding [2]
B1 | binds | binds
B2 | binds | –
B3 | binds | –
B4 | binds | –
B5 | binds | –
B6 | binds | –
B7 | binds | binds
B8 | binds | –
B9 | binds | –
B10 | binds | –
B11 | binds | –
B12 | binds | –
B13 | binds | –
B14 | binds | –
B15 | binds | –
B16 | binds | –
B17 | binds | –
B18 | binds | –
B19 | binds | –
B20 | binds | –
B21 | binds | –
B22 | binds | –
B23 | binds | –
B24 | binds | –
